Data on seven substances can be found in patent US20040072738A1 (priority 2000, published 2004).

HELM strings list residues between dots; [ac] is acetyl, [am] amide, other brackets name non-standard units. Bridge positions count the residues as written; N and C are the ends. Square brackets hold non-standard residues; d marks the D form. I, II: the chains in the order shown. * marks the point of attachment. Quinaldoyl(3-OH,6-OMe) = COc1ccc2nc(C(=O)*)c(O)cc2c1; Quinoxaline2carbonyl = O=C(c1cnc2ccccc2n1)*; Quinaldoyl(3-OH) = O=C(c1nc2ccccc2cc1O)*; Quinaldoyl = O=C(c1ccc2ccccc2n1)*; NMeC = CN[C@@H](CS)C(=O)O; NMeDha = C=C(NC)C(=O)O

This data set can be described thus: general procedure: solution-phase peptide synthesis; EDCI/HOAt; EDCI/DMAP for chromophore acylation.

“I: Quinaldoyl-[dC]G[NMeC][NMeC](Me) / II: Quinaldoyl-[dC]G[NMeC][NMeC](Me) (thioester I:1-II:C, I:C-II:1; disulfide I:3-II:3; SMILES CSC[C@H]1C(=O)SC[C@@H](NC(=O)c2ccc3ccccc3n2)C(=O)NCC(=O)N(C)[C@H]2CSSC[C@@H](C(=O)N1C)N(C)C(=O)CNC(=O)[C@H](NC(=O)c1ccc3ccccc3n1)CSC(=O)[C@H](CSC)N(C)C2=O)”: for the setting “late stage modification step”, the step yield was found to be 52%. Still for that read-out and setting: as for “I: Quinoxaline2carbonyl-[dC]G[NMeC][NMeC](Me) / II: Quinoxaline2carbonyl-[dC]G[NMeC][NMeC](Me) (thioester I:1-II:C, I:C-II:1; disulfide I:3-II:3; SMILES CSC[C@H]1C(=O)SC[C@@H](NC(=O)c2cnc3ccccc3n2)C(=O)NCC(=O)N(C)[C@H]2CSSC[C@@H](C(=O)N1C)N(C)C(=O)CNC(=O)[C@H](NC(=O)c1cnc3ccccc3n1)CSC(=O)[C@H](CSC)N(C)C2=O)”, the figure is 47%; as for “I: {Quinaldoyl(3-OH)}-[dC]G[NMeC][NMeDha] / II: {Quinaldoyl(3-OH)}-[dC]G[NMeC][NMeDha] (thioester I:1-II:C, I:C-II:1; disulfide I:3-II:3; SMILES C=C1C(=O)SC[C@@H](NC(=O)c2nc3ccccc3cc2O)C(=O)NCC(=O)N(C)[C@H]2CSSC[C@@H](C(=O)N1C)N(C)C(=O)CNC(=O)[C@H](NC(=O)c1nc3ccccc3cc1O)CSC(=O)C(=C)N(C)C2=O)”, 66%; as for “I: {Quinaldoyl(3-OH,6-OMe)}-[dC]G[NMeC][NMeC](Me) / II: {Quinaldoyl(3-OH,6-OMe)}-[dC]G[NMeC][NMeC](Me) (thioester I:1-II:C, I:C-II:1; disulfide I:3-II:3; SMILES COc1ccc2nc(C(=O)N[C@@H]3CSC(=O)[C@H](CSC)N(C)C(=O)[C@@H]4CSSC[C@@H](C(=O)N(C)[C@@H](CSC)C(=O)SC[C@@H](NC(=O)c5nc6ccc(OC)cc6cc5O)C(=O)NCC(=O)N4C)N(C)C(=O)CNC3=O)c(O)cc2c1)”, 51%. Where the note is “coupling step”, “N-Cbz-D-Cys[N-BOC-Gly-NMe-L-Cys(Acm)-NMe-L--Cys(Me)]-OTce” registered a step yield of 83%.

Substance “N-Cbz-D-Cys[N-Cbz-D-Cys(N-BOC-Gly-NMe-L-Cys(Acm)-NMe-L-Cys(Me))-Gly-NMe-L-Cys(Acm)-NMe-L--Cys(Me)]-OTce” registered a step yield (coupling step) of 83%. Consider “PEPTIDE1{[Cbz].[dC].G.[NMeCys].[NMeCys(Me)]}|PEPTIDE2{[Cbz].[dC].G.[NMeCys].[NMeCys(Me)]}$PEPTIDE1,PEPTIDE2,5:R2-2:R3|PEPTIDE2,PEPTIDE1,5:R2-2:R3|PEPTIDE1,PEPTIDE2,4:R3-4:R3$$$V2.0”, for which, where the note is “cyclisation step”, the cyclisation yield came out at 52%.
